# Patent publication EP1494693B1
# The chains behind the UniProt entries cited, without tags or fusion partners. Residues count along the entry.
# UniProt P13385, residues 31-169: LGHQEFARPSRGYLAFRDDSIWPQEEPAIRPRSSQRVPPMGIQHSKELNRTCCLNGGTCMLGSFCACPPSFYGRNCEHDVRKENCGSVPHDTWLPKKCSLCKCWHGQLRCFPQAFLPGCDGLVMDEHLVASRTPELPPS
# These are yes or no findings as the source states them, for the method shown. Some entries that bind do so weakly or less than the wild type.
# T1: Activin B (UniProt P09529)
# T1 sequence (looked up): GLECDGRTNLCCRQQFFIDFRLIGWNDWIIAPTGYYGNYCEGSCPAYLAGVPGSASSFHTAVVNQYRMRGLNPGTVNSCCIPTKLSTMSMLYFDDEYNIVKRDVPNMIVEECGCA
# Assays:
# [1] = molecular target: T1, Activin B; assay: ELISA, ligand-coated plate, anti-Fc alkaline phosphatase
# [2] = molecular target: CR-Fc (UniProt P13385); assay: Biacore, CR-Fc immobilized
binding [1],binding [2],Molecule
binds,,CR-Fc (from UniProt P13385 31-169) (Fc fusion)
,binds,"Activin B (ligand, UniProt P09529 293-407, looked up) GLECDGRTNLCCRQQFFIDFRLIGWNDWIIAPTGYYGNYCEGSCPAYLAGVPGSASSFHTAVVNQYRMRGLNPGTVNSCCIPTKLSTMSMLYFDDEYNIVKRDVPNMIVEECGCA"
